Here are results for 16 compounds from PubChem BioAssay AID2685 (National Center for Advancing Translational Sciences (NCATS), 2010).

This assay can be described thus: qHTS Assay for Lipid Storage Modulators in Drosophila S3 Cells.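 On cell number change: cells counted by Cell Tracker Red CMTPX staining in the red channel.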 The note with it: BODIPY lipid droplet fluorescence, 18-24 h; for cell number change: measured here: cell count max response, cells fed with added oleic acid. A digest of the protocol: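 Drosophila S3 cells got compounds at several concentrations plus oleic acid (400 uM solution). Laser-scanning cytometry with 488 nm excitation read lipid droplets at 500-530 nm and cells at 575-640 nm. Percent activity was relative to 20 uM Triacsin C.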

[1] abbreviates: measured here: cell number channel AC50, cells fed with added oleic acid.
[2] abbreviates: measured here: lipid fluorescence (Fed channel) AC50, cells fed with added oleic acid.

Structures are written as SMILES. This is one part of the list. These are further read-outs of the screen, such as a control signal, another cell line or another target. No call is given for them. Compounds called inactive in the main read-out are mostly missing here. Potencies come from curve fits of mixed quality, noted in brackets.

As to `Cc1ccc2c(c1)CC1(CN2C)C(=O)NC(=O)N(c2cccc(C)c2C)C1=O` (stereo unspecified), under setting [1], the AC50 was 0.326 µM [rising, full curve].

As to `Cn1c(O)c(Cc2cccc(Cl)c2Cl)c(=O)n(C)c1=O`, the cell number change is 32.6%. Under setting [1], the AC50 is 32.6 µM [rising, single point].

With `CN1CC2([N+](=O)[O-])CC=C(Cl)C([N+](=O)[O-])(C1)C2` (stereo unspecified), the cell number change was determined as 78%. Under setting [1], the AC50 is 4.11 µM [falling, single point].

Consider `O=Cc1cc(Br)c(OC(=O)N2CCOCC2)c(Br)c1`, for which the AC50 under setting [1] is 32.6 µM [falling, single point].

Regarding `CCCCCn1c(=O)c(C(=O)NCCc2ccccc2)c(O)c2ccccc21`, the cell number change was found to be 22.6%.

Consider `c1ccc(-c2nc(N3CCOCC3)s[n+]2-c2ccccc2)cc1`, for which the cell number change is -16.6%. The AC50 under setting [2] was 29.1 µM [falling, single point].

`COC(=O)C1=C(c2cccc(C#N)c2)C[C@@H]2CC[C@H]1N2C(=O)NCCc1ccccc1`: the cell number change was -11.1%. Besides, the AC50 under setting [2] was 23.1 µM [rising, single point].

With `CC(=O)OC[C@]12CCC(C)=C[C@H]1O[C@@H]1[C@H](O)[C@@H](OC(C)=O)[C@@]2(C)[C@]12CO2`, the cell number change is -44.7%. Under setting [1], the AC50 is 0.0517 µM [falling, full curve]. In addition, the AC50 under setting [2] was 0.0206 µM [falling, full curve].

As for `O=C1NC(=O)C2(Cc3ccccc3N3CCOCC32)C(=O)N1c1ccccc1` (stereo unspecified), the cell number change was 5.19%. The AC50 under setting [1] is 0.731 µM [falling, full curve]. Moreover, the AC50 under setting [2] was 0.731 µM [falling, full curve].

`CN1CCN(c2ccc(NC(=O)Oc3ccccc3)cc2)CC1`: the cell number change is -47.9%. The AC50 under setting [2] is 11.6 µM [falling, partial curve].

As for `O=c1oc2cccnc2n1CCS(=O)(=O)c1ccc(F)cc1`, the AC50 under setting [1] was 0.0517 µM [falling, partial curve, poor fit].

For `O=C(c1ccco1)c1cn(Cc2ccccc2)c2ccccc12`, the cell number change amounted to 87.3%. The AC50 under setting [1] is 16.4 µM [rising, partial curve]. For the same compound, under setting [2], the AC50 is 6.51 µM [rising, single point].

`Brc1ccc(C2N3CCCN23)cc1` (stereo unspecified): the AC50 under setting [1] is 0.103 µM [rising, full curve, poor fit].

Consider `c1ccc2oc(N3CCNCC3)nc2c1`, for which the cell number change was 37.9%. Besides, the AC50 under setting [1] is 2.06 µM [rising, full curve]. The AC50 under setting [2] is 2.06 µM [rising, partial curve].

With `O=C(N/N=C/c1c(O)n(-c2ccccc2)c(=S)[nH]c1=O)c1ccccc1`, the cell number change came to 36.3%. For the same compound, the AC50 under setting [1] is 4.61 µM [rising, partial curve]. For the same compound, the AC50 under setting [2] was 14.6 µM [rising, partial curve, poor fit].

Consider `CCCC/C(=N/O)c1c(C)[nH]c2ccccc12`, for which the cell number change was -6.03%.

As usually defined, the AC50 is the concentration giving half of the maximal activity seen. A higher AC50 goes with activity only at high concentration.
